PubChem BioAssay AID1259424 – University of Nebraska Medical Center – 2018
The whole screen tested about 14,000 reagents; below is a random part of them. 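Higher correlation or smaller distance means closer resemblance to KSR1 loss; control wells, including KSR1 knockdowns, recur on many plates.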 Reagent sequences are not shown. The record does not give: the time to read-out.

Aim: 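Rank knockdowns across the genome by resemblance to the KSR1 depletion profile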 (primary screen)
Cell system: human HCT116 colon cancer cells
Knock-down reagent: siRNA pool against human genes, 50 nM
Measurement: 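Six signature mRNAs by branched-DNA multiplex assay, scaled to two housekeeping genes and non-targeting median, log2; matched to mean KSR1 knockdown profile by Pearson correlation and euclidean distance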
Direction: mean correlation with KSR1 profile and KSR1 correlation: higher = expression change more like KSR1 knockdown; mean distance from KSR1 profile: higher = expression change less like KSR1 knockdown

gene | mean correlation with KSR1 profile | mean distance from KSR1 profile | KSR1 correlation, replicate 1 | KSR1 correlation, replicate 2 | KSR1 correlation, replicate 3
NLGN1 | -0.437 | 3.13 | -0.312 | -0.532 | -0.372
FAAH | -0.51 | 2.12 | -0.487 | -0.509 | -0.539
OBSL1 | 0.378 | 2.03 | 0.36 | 0.269 | 0.455
IL4R | 0.219 | 1.62 | 0.401 | 0.196 | 0.17
RNF130 | -0.345 | 2 | -0.297 | -0.477 | -0.429
MFN2 | 0.0138 | 1.45 | 0.101 | -0.192 | 0.153
GNPNAT1 | 0.0937 | 1.11 | -0.409 | 0.106 | -0.171
CLU | -0.492 | 2.75 | -0.399 | -0.595 | -0.459
IL17C | 0.0536 | 2.26 | 0.177 | 0.0203 | -0.115
YWHAE | -0.246 | 4.42 | -0.209 | -0.159 | 0.155
RTN4 | -0.202 | 1.57 | -0.12 | -0.241 | -0.349
SNRPA1 | -0.436 | 3.09 | -0.503 | -0.258 | -0.437
NOX3 | -0.372 | 2.37 | -0.185 | -0.475 | -0.469
NET1 | -0.389 | 1.37 | -0.543 | -0.171 | -0.351
GLI1 | 0.656 | 4.05 | 0.766 | 0.533 | 0.879
AVPI1 | -0.438 | 2.92 | -0.353 | -0.173 | -0.55
ARHGAP42 | -0.135 | 2.11 | -0.0597 | -0.038 | -0.197
SMCP | -0.47 | 1.94 | -0.717 | -0.0259 | -0.234
GLRA3 | 0.199 | 1.72 | 0.206 | 0.259 | 0.0549
TBC1D8B | -0.491 | 2.88 | -0.416 | -0.593 | -0.52
MEX3B | 0.805 | 0.956 | 0.683 | 0.875 | 0.916
PON3 | 0.28 | 1.38 | 0.36 | 0.12 | 0.293
XRN2 | -0.371 | 2.54 | -0.23 | -0.491 | -0.263
ETV7 | 0.555 | 1.67 | 0.724 | 0.651 | 0.398
PSEN1 | 0.43 | 1.21 | 0.107 | 0.536 | 0.243
ANK2 | -0.113 | 1.86 | 0.00165 | -0.224 | -0.137
CLK3 | 0.318 | 2.5 | 0.338 | 0.412 | 0.0849
KLHL14 | 0.266 | 2.47 | 0.0382 | 0.427 | 0.0425
SUCLA2 | -0.595 | 3.24 | -0.426 | -0.728 | -0.537
WNT6 | -0.302 | 2.56 | -0.202 | -0.49 | -0.371
FBXW2 | -0.774 | 1.79 | -0.799 | -0.877 | -0.643
SULT1B1 | -0.481 | 2.27 | -0.529 | -0.52 | -0.252
CYFIP1 | 0.116 | 2.92 | 0.143 | 0.0968 | -0.0156
ZNF274 | -0.326 | 2.76 | -0.184 | -0.382 | -0.409
PI4KB | 0.188 | 3.04 | 0.226 | 0.229 | 0.338
CYLC1 | 0.0245 | 4.55 | 0.072 | 0.118 | -0.153
CACNG7 | -0.0784 | 2.63 | 0.356 | 0.178 | -0.065
SENP1 | -0.0107 | 1.3 | -0.0784 | 0.0657 | 0.0355
SLC7A10 | -0.577 | 1.46 | -0.491 | -0.683 | -0.773
BRD9 | 0.673 | 0.886 | 0.274 | 0.616 | 0.943
ERAP2 | -0.233 | 3.07 | -0.308 | -0.49 | -0.346
RBX1 | -0.728 | 3.85 | -0.777 | -0.613 | -0.77
IRF2BPL | 0.249 | 1.12 | 0.333 | -0.361 | 0.186
NOTCH2 | 0.272 | 1.85 | 0.282 | 0.502 | -0.267
TRDMT1 | -0.569 | 3.39 | -0.562 | -0.661 | -0.58
ZNF665 | -0.578 | 1.81 | -0.613 | -0.751 | -0.756
FHIP2B | 0.333 | 1.14 | 0.0128 | 0.439 | 0.0238
CMSS1 | 0.773 | 1.38 | 0.626 | 0.671 | 0.769
CDK2AP1 | -0.286 | 2.44 | -0.11 | -0.233 | -0.53
RPS28 | -0.743 | 1.94 | -0.888 | -0.649 | -0.683

5 entries from above, reformatted:
| gene | mean correlation with KSR1 profile | mean distance from KSR1 profile | KSR1 correlation, replicate 1 | KSR1 correlation, replicate 2 | KSR1 correlation, replicate 3 |
| --- | --- | --- | --- | --- | --- |
| TRDMT1 | -0.569 | 3.39 | -0.562 | -0.661 | -0.58 |
| ZNF665 | -0.578 | 1.81 | -0.613 | -0.751 | -0.756 |
| FHIP2B | 0.333 | 1.14 | 0.0128 | 0.439 | 0.0238 |
| CMSS1 | 0.773 | 1.38 | 0.626 | 0.671 | 0.769 |
| CDK2AP1 | -0.286 | 2.44 | -0.11 | -0.233 | -0.53 |
